Experimental data: patent publication US20110092476A1, “Bicycloheteroaryl compounds as P2X7 modulators and uses thereof” (Renovis, Inc., priority 2006, published 2011)

Experiment: Pharmacokinetic evaluation following intravenous and oral administration in rats (oral bioavailability)
Conditions: male Sprague-Dawley rats, PO 1 to 5 mg/kg vs IV 1 mg/kg, AUCinf dose-normalized

Oral Bioavailability F (%): + (0-25% F)
SMILES: O=C(Cc1ccc(Cl)c(C(F)(F)F)c1)Nc1cccc2c(=O)n(CCO)ccc12 [Compound 65, 2-(4-Chloro-3-trifluoromethyl-phenyl)-N-[2-(2-hydroxy-ethyl)-1-oxo-1,2-dihydro-isoquinolin-5-yl]-acetamide]
